Measurements reported in paper PMC9363427, “The SWI/SNF chromatin remodeling factor DPF3 regulates metastasis of ccRCC by modulating TGF-β signaling” (Nature Communications, 2022).
Results are given in words; binding and its absence hold for the method and conditions named. Binding seen in cells or lysates may run through a third protein. A yes stands for co-enrichment or nearness to the bait. Other partners may have been found. Where a sequence is shown, tags or fusion partners need not be part of it.

Chains of the proteins cited; added tags and fusions are not shown. Residues count along the entry.
UniProt Q96GM5: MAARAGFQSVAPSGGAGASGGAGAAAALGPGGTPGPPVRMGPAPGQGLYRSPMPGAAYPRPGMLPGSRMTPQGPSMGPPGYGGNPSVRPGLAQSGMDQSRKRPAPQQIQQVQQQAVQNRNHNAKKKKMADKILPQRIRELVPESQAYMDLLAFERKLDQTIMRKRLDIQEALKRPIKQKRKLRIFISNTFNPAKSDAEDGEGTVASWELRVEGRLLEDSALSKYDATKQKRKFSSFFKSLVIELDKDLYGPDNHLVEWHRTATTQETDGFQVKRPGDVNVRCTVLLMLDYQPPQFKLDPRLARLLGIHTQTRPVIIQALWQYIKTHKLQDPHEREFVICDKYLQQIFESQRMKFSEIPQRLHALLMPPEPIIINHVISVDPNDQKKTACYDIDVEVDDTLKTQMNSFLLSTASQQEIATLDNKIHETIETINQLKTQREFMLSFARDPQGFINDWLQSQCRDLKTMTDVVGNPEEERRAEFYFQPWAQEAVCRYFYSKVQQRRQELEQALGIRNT
UniProt P51531: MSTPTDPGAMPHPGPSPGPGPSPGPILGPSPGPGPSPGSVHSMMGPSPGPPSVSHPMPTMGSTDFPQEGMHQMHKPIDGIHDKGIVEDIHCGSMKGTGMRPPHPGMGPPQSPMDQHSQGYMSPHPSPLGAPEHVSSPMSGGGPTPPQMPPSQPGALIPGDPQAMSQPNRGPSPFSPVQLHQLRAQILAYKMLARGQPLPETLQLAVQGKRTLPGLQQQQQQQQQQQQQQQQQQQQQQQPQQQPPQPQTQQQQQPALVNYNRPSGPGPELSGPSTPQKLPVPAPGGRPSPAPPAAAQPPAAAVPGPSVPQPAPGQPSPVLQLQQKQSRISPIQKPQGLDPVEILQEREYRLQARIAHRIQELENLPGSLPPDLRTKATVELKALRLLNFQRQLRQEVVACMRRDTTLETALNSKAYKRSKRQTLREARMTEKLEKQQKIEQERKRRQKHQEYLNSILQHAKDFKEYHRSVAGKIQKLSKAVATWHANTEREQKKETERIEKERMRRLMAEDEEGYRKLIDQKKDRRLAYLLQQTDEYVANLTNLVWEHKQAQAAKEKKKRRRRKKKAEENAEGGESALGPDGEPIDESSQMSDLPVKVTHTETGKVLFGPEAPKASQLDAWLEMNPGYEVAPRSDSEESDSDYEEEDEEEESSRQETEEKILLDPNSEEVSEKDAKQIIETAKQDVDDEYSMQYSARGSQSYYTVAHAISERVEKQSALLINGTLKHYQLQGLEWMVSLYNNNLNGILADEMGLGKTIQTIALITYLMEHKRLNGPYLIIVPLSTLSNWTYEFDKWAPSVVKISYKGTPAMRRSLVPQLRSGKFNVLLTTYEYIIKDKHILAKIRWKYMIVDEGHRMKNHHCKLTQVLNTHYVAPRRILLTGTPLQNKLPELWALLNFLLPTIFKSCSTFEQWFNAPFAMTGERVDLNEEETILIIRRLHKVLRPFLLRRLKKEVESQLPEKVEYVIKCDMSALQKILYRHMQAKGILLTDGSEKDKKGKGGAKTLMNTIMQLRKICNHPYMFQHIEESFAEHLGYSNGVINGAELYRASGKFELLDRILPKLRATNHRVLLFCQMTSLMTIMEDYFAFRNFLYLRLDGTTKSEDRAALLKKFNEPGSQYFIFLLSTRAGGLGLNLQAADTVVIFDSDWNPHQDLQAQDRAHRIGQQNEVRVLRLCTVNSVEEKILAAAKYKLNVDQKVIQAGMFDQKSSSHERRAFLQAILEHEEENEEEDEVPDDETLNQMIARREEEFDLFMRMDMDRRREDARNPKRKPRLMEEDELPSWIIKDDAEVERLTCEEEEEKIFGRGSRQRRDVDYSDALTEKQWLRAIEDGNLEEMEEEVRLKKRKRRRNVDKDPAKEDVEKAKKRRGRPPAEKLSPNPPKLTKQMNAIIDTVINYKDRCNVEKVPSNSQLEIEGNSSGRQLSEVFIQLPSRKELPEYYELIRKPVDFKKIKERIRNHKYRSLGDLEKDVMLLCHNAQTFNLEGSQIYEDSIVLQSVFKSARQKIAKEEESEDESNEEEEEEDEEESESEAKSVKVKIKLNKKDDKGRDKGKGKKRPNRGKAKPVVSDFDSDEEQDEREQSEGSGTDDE
UniProt P11182, residues 62-482: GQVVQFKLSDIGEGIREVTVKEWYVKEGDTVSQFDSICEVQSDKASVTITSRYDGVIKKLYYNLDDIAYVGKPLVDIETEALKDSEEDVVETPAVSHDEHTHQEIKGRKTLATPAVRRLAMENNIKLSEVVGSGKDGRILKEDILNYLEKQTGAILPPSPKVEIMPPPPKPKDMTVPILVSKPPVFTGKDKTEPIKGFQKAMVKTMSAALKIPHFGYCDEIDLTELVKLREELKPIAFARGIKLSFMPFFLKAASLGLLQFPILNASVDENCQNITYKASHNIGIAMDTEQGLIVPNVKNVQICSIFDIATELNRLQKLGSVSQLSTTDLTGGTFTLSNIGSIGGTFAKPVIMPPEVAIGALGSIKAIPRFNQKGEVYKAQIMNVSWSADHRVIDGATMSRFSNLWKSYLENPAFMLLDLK
UniProt P51532: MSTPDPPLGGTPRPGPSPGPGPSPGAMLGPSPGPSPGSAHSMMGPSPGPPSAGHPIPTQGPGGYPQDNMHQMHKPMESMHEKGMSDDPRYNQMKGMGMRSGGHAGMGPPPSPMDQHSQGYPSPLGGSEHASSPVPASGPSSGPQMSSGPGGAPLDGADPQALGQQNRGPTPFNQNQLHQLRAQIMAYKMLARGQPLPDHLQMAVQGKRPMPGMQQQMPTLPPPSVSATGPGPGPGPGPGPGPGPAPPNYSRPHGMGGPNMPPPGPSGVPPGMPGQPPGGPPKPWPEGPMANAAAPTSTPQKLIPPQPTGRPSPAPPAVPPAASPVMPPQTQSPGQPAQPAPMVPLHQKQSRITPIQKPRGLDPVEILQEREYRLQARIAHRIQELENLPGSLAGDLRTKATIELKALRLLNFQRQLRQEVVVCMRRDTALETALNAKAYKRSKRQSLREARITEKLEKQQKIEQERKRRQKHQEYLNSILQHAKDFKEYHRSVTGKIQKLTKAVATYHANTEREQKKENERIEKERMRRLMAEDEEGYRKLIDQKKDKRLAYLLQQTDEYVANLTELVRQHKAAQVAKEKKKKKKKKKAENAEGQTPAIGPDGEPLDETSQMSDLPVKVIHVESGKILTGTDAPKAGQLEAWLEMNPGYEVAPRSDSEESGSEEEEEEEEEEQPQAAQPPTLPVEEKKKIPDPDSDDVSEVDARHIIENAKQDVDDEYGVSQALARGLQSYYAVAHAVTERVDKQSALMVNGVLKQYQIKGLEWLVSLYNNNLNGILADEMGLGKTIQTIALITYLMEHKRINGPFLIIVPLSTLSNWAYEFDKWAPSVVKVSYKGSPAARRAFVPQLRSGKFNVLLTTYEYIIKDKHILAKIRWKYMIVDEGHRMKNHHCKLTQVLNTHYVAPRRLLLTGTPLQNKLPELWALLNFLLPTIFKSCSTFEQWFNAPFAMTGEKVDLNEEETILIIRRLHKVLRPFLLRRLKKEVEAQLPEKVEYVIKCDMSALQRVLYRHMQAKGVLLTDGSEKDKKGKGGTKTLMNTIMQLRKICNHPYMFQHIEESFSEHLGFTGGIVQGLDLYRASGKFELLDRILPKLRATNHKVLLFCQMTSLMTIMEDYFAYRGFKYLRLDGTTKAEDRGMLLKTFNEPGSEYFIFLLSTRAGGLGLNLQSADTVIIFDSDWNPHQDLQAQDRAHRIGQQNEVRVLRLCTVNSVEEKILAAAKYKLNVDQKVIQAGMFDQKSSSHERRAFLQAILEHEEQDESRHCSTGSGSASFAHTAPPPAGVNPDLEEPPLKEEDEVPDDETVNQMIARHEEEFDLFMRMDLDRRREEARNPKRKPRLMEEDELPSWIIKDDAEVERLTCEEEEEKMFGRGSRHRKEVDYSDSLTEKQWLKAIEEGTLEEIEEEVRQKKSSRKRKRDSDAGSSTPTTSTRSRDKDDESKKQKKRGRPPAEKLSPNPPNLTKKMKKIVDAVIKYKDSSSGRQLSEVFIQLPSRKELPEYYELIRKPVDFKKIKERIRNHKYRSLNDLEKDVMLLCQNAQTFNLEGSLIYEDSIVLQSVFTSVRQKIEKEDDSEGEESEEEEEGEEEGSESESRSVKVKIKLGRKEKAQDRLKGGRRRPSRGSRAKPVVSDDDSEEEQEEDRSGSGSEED
UniProt O96019: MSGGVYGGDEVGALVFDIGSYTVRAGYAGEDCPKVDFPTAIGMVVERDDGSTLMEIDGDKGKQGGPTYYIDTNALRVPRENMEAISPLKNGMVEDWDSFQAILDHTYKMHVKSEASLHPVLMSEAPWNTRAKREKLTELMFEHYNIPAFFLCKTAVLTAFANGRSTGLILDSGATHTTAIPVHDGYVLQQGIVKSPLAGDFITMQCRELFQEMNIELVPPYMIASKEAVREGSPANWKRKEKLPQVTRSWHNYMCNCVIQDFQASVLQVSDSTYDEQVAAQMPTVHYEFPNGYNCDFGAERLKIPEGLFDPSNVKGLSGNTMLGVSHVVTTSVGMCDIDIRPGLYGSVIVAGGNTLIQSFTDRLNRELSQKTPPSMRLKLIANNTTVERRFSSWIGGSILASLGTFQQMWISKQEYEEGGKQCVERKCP
UniProt Q9UDY4: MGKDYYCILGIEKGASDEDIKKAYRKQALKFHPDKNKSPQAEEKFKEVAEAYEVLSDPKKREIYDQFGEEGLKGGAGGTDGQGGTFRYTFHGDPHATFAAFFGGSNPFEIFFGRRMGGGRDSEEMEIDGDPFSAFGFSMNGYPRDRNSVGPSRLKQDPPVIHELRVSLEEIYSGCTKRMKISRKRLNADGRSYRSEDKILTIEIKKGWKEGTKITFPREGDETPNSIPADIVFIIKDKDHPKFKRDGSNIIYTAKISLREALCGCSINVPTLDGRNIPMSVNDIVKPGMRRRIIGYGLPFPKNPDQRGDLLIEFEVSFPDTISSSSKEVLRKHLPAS
UniProt Q969G3: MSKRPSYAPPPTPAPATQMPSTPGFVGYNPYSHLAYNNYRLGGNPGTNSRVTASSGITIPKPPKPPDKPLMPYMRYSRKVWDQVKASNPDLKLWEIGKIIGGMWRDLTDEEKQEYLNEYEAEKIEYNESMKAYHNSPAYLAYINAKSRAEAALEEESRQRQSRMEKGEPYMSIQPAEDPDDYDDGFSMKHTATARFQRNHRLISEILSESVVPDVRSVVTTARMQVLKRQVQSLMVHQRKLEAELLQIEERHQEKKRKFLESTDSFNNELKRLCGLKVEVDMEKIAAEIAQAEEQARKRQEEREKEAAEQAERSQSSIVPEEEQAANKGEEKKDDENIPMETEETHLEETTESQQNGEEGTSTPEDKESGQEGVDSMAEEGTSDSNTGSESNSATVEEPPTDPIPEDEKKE
UniProt Q8TAQ2: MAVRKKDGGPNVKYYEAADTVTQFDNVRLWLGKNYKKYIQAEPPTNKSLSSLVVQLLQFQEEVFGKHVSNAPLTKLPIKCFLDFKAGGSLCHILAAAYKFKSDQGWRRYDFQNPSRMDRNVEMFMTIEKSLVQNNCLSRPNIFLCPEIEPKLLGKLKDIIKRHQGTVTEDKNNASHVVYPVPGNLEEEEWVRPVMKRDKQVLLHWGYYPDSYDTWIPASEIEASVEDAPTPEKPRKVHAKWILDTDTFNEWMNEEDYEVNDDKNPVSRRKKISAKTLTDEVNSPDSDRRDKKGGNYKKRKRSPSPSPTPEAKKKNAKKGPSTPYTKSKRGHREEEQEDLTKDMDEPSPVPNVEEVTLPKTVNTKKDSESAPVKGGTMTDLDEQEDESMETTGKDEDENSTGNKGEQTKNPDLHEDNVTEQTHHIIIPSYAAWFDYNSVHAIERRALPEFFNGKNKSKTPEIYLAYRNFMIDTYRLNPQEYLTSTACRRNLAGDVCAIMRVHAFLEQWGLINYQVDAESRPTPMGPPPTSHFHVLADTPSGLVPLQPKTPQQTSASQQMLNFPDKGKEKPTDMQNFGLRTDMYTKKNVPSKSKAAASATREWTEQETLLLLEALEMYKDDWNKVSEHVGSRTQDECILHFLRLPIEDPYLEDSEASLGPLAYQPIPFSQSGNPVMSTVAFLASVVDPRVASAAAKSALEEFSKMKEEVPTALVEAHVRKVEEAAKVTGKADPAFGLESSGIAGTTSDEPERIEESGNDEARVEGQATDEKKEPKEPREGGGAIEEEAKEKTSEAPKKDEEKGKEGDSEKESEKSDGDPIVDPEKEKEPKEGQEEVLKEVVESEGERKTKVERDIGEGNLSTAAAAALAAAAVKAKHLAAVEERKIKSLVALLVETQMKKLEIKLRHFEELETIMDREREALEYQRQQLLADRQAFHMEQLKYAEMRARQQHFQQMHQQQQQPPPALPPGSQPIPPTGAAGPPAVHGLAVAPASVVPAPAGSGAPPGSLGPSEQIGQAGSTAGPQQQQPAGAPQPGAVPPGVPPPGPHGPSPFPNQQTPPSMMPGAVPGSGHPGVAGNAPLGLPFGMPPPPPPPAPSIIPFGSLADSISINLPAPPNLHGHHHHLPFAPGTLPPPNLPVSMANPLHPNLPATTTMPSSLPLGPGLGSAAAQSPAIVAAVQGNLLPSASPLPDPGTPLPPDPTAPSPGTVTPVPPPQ

T1: HA-tagged DPF3a (786-O cells) (human) (UniProt Q92784)
T1 sequence: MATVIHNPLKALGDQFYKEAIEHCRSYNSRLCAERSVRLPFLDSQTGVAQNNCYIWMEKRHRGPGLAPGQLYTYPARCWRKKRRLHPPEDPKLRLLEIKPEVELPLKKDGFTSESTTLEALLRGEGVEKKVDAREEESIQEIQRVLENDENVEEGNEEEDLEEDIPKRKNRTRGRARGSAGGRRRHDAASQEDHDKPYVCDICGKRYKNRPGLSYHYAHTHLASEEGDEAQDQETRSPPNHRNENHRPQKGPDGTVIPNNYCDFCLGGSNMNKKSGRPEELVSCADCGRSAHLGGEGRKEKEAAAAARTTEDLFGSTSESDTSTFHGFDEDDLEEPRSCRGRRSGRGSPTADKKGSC


Target: T1, HA-tagged DPF3a (786-O cells) (human)
Assay: affinity purification with mass spectrometry; lysate of 786-O cells with and without HA-tagged DPF3a; immunoprecipitation with anti-HA beads for two hours, three washes with TBST, on-beads trypsin digestion, label-free quantification

Molecule	binding
SWI/SNF complex subunit SMARCD1 (from UniProt Q96GM5 1-515)	binds
SWI/SNF complex subunit SMARCC1 (from UniProt Q92922 1-1105)	binds
SWI/SNF complex subunit SMARCD3 (from UniProt Q6STE5 1-483)	binds
Dimethyladenosine transferase 1, mitochondrial (from UniProt Q8WVM0 28-346)	binds
SWI/SNF complex subunit SMARCA2 (from UniProt P51531 1-1590)	binds
Histone chaperone ASF1B (from UniProt Q9NVP2 1-202)	binds
Dihydrolipoamide Branched Chain Transacylase (from UniProt P11182 62-482)	binds
Tubulin alpha-4A chain (from UniProt P68366 1-448)	binds
SWI/SNF complex subunit SMARCA4 (from UniProt P51532 1-1647)	binds
Actin-like protein 6A (from UniProt O96019 1-429)	binds
DnaJ homolog subfamily B member 4 (from UniProt Q9UDY4 1-337)	binds
ATP-dependent 6-phosphofructokinase, liver type (protein, UniProt P17858 1-780) MAAVDLEKLRASGAGKAIGVLTSGGDAQGMNAAVRAVTRMGIYVGAKVFLIYEGYEGLVEGGENIKQANWLSVSNIIQLGGTIIGSARCKAFTTREGRRAAAYNLVQHGITNLCVIGGDGSLTGANIFRSEWGSLLEELVAEGKISETTARTYSHLNIAGLVGSIDNDFCGTDMTIGTDSALHRIMEVIDAITTTAQSHQRTFVLEVMGRHCGYLALVSALASGADWLFIPEAPPEDGWENFMCERLGETRSRGSRLNIIIIAEGAIDRNGKPISSSYVKDLVVQRLGFDTRVTVLGHVQRGGTPSAFDRILSSKMGMEAVMALLEATPDTPACVVTLSGNQSVRLPLMECVQMTKEVQKAMDDKRFDEATQLRGGSFENNWNIYKLLAHQKPPKEKSNFSLAILNVGAPAAGMNAAVRSAVRTGISHGHTVYVVHDGFEGLAKGQVQEVGWHDVAGWLGRGGSMLGTKRTLPKGQLESIVENIRIYGIHALLVVGGFEAYEGVLQLVEARGRYEELCIVMCVIPATISNNVPGTDFSLGSDTAVNAAMESCDRIKQSASGTKRRVFIVETMGGYCGYLATVTGIAVGADAAYVFEDPFNIHDLKVNVEHMTEKMKTDIQRGLVLRNEKCHDYYTTEFLYNLYSSEGKGVFDCRTNVLGHLQQGGAPTPFDRNYGTKLGVKAMLWLSEKLREVYRKGRVFANAPDSACVIGLKKKAVAFSPVTELKKDTDFEHRMPREQWWLSLRLMLKMLAQYRISMAAYVSGELEHVTRRTLSMDKGF	binds
CTP synthase 1 (protein, UniProt P17812 1-591) MKYILVTGGVISGIGKGIIASSVGTILKSCGLHVTSIKIDPYINIDAGTFSPYEHGEVFVLDDGGEVDLDLGNYERFLDIRLTKDNNLTTGKIYQYVINKERKGDYLGKTVQVVPHITDAIQEWVMRQALIPVDEDGLEPQVCVIELGGTVGDIESMPFIEAFRQFQFKVKRENFCNIHVSLVPQPSSTGEQKTKPTQNSVRELRGLGLSPDLVVCRCSNPLDTSVKEKISMFCHVEPEQVICVHDVSSIYRVPLLLEEQGVVDYFLRRLDLPIERQPRKMLMKWKEMADRYDRLLETCSIALVGKYTKFSDSYASVIKALEHSALAINHKLEIKYIDSADLEPITSQEEPVRYHEAWQKLCSAHGVLVPGGFGVRGTEGKIQAIAWARNQKKPFLGVCLGMQLAVVEFSRNVLGWQDANSTEFDPTTSHPVVVDMPEHNPGQMGGTMRLGKRRTLFQTKNSVMRKLYGDADYLEERHRHRFEVNPVWKKCLEEQGLKFVGQDVEGERMEIVELEDHPFFVGVQYHPEFLSRPIKPSPPYFGLLLASVGRLSHYLQKGCRLSPRDTYSDRSGSSSPDSEITELKFPSINHD	binds
14-3-3 protein theta (protein, UniProt P27348 1-245) MEKTELIQKAKLAEQAERYDDMATCMKAVTEQGAELSNEERNLLSVAYKNVVGGRRSAWRVISSIEQKTDTSDKKLQLIKDYREKVESELRSICTTVLELLDKYLIANATNPESKVFYLKMKGDYFRYLAEVACGDDRKQTIDNSQGAYQEAFDISKKEMQPTHPIRLGLALNFSVFYYEILNNPELACTLAKTAFDEAIAELDTLNEDSYKDSTLIMQLLRDNLTLWTSDSAGEECDAAEGAEN	binds
Lysozyme; Lysozyme C (protein, UniProt P61626 19-148) KVFERCELARTLKRLGMDGYRGISLANWMCLAKWESGYNTRATNYNAGDRSTDYGIFQINSRYWCNDGKTPGAVNACHLSCSALLQDNIADAVACAKRVVRDPQGIRAWVAWRNRCQNRDVRQYVQGCGV	binds

Second part, the molecule after the results:

binding	Molecule
binds	Lamin A/C (from UniProt P02545 1-646)
binds	SWI/SNF complex subunit SMARCE1 (from UniProt Q969G3 1-411)
binds	SWI/SNF complex subunit SMARCB1 (from UniProt Q12824 1-385)
binds	Putative lipocalin 1-like protein 1;Lipocalin 1 (human (endogenous in 786-O))
binds	Glycogen phosphorylase, brain form/muscle form (human (endogenous in 786-O))
binds	U2 snRNP-associated SURP motif-containing protein (from UniProt O15042 1-1029)
binds	SWI/SNF complex subunit SMARCD2 (from UniProt Q92925 1-531)
binds	SWI/SNF complex subunit SMARCC2 (from UniProt Q8TAQ2 1-1214)
binds	SMAD nuclear-interacting protein 1 (endogenous, 786-O) (protein, UniProt Q8TAD8 1-396) MKAVKSERERGSRRRHRDGDVVLPAGVVVKQERLSPEVAPPAHRRPDHSGGSPSPPTSEPARSGHRGNRARGVSRSPPKKKNKASGRRSKSPRSKRNRSPHHSTVKVKQEREDHPRRGREDRQHREPSEQEHRRARNSDRDRHRGHSHQRRTSNERPGSGQGQGRDRDTQNLQAQEEEREFYNARRREHRQRNDVGGGGSESQELVPRPGGNNKEKEVPAKEKPSFELSGALLEDTNTFRGVVIKYSEPPEARIPKKRWRLYPFKNDEVLPVMYIHRQSAYLLGRHRRIADIPIDHPSCSKQHAVFQYRLVEYTRADGTVGRRVKPYIIDLGSGNGTFLNNKRIEPQRYYELKEKDVLKFGFSSREYVLLHESSDTSEIDRKDDEDEEEEEEVSDS
